Results are given in words; binding and its absence hold for the method and conditions named. Binding seen in cells or lysates may run through a third protein. Binding can be weak; no strength is given. Where a sequence is shown, tags or fusion partners need not be part of it.

The target of the assay is T1, HA-tagged UL21 of bovine herpesvirus 1 (Bovine herpesvirus 1 (strain IBRV HB06)) (UniProt K4P3K8).
T1 sequence: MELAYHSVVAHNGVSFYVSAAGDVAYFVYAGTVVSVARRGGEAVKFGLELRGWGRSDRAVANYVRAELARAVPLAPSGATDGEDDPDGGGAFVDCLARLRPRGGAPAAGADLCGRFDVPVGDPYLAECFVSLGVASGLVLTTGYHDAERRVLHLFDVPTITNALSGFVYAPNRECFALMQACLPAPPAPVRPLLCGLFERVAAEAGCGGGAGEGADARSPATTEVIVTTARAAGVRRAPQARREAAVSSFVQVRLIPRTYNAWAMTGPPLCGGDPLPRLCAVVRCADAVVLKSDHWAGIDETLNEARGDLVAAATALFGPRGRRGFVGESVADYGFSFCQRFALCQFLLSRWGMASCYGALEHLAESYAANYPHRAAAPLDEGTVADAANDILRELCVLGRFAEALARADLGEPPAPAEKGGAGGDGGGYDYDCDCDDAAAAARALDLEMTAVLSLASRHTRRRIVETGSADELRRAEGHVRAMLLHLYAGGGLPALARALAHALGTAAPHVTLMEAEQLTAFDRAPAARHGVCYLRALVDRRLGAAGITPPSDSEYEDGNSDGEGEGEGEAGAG
Briefly: co-IP; lysates of MDBK cells infected with vBoHV-1-UL21-HA or wild-type BoHV-1, or mock infected (MOI 3, 18 hpi; lysis buffer with 1% Triton X-100, 1 mM EDTA, 50 mM Tris, 150 mM NaCl) incubated with anti-HA monoclonal antibody magnetic agarose beads for 5 to 6 h at 4°C; five washes; Western blot with antisera against UL16 and UL21 and with anti-HA.

Consider UL16 of bovine herpesvirus 1, for which the binding result is given as “binds”.

The values above are taken from paper PMC5706888.
